The source of these data is PMC4639896.

By UniProt entry, the sequences of proteins in these tests, tags left out.
UniProt Q9FY48: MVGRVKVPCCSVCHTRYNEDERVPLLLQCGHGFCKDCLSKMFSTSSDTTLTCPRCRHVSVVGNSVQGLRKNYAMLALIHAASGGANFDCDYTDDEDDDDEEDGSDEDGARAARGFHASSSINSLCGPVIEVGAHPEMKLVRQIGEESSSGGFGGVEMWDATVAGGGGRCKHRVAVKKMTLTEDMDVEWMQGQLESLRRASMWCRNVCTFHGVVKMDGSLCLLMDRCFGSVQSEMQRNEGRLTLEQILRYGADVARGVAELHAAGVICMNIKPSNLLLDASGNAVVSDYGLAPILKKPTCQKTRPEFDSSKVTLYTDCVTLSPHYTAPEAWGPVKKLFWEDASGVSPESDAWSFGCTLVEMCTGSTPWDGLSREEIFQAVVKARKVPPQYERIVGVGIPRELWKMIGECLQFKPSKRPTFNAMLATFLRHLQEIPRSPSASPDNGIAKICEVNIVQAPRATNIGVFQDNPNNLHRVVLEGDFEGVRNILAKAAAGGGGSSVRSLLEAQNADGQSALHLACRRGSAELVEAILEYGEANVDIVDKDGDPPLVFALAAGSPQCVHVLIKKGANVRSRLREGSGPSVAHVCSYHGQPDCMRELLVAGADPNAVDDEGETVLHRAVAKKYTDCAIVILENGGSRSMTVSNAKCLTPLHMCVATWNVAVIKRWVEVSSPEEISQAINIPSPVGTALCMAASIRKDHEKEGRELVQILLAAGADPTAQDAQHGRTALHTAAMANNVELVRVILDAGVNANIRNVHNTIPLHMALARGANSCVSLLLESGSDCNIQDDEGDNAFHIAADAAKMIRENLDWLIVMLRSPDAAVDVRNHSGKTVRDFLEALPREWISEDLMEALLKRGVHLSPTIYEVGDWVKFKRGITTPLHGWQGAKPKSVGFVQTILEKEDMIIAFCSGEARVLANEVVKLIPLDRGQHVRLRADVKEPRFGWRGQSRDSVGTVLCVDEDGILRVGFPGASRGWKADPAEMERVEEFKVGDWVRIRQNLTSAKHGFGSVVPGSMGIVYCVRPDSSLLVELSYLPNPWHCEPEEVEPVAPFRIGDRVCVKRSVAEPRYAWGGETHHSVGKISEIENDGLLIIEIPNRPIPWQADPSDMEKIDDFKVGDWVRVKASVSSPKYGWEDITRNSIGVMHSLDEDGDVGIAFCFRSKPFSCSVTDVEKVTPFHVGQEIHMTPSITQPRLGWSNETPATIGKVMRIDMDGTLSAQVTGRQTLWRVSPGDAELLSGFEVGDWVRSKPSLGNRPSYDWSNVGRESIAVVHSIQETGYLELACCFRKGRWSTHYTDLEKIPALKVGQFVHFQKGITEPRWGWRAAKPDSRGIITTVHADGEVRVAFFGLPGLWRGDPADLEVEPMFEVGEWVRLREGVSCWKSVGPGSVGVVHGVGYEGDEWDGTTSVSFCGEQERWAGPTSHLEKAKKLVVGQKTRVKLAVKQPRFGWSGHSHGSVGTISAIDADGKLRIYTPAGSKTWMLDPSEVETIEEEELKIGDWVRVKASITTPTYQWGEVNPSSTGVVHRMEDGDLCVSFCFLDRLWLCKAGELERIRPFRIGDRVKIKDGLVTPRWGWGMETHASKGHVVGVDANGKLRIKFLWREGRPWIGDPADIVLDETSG

No constants are given. Whether binding was seen depends on the method and setting. For part of these data: In cells and extracts the contact can be indirect. Some results given as binding are weak or reduced against the parent protein; the word gives no strength. Sequences can lack the tags named with a protein.

In assay [1] the target is ABI5 (ABA … 5, basic leucine zipper transcription factor), yeast two-hybrid fusion (Arabidopsis thaliana) (UniProt Q9SJN0). Description: two-hybrid; ABI5 and ABI5C153S in pDEST22 (prey) and pDEST32 (bait); mating, diploids spotted on DOB-L-W-Histidine ± 3-AT, 28 °C; also in the presence of NO-related compounds.
In assay [2] the target is T1, FLAG-CUL4 (CULLIN4) (Arabidopsis thaliana) (UniProt Q8LGH4).
T1 sequence: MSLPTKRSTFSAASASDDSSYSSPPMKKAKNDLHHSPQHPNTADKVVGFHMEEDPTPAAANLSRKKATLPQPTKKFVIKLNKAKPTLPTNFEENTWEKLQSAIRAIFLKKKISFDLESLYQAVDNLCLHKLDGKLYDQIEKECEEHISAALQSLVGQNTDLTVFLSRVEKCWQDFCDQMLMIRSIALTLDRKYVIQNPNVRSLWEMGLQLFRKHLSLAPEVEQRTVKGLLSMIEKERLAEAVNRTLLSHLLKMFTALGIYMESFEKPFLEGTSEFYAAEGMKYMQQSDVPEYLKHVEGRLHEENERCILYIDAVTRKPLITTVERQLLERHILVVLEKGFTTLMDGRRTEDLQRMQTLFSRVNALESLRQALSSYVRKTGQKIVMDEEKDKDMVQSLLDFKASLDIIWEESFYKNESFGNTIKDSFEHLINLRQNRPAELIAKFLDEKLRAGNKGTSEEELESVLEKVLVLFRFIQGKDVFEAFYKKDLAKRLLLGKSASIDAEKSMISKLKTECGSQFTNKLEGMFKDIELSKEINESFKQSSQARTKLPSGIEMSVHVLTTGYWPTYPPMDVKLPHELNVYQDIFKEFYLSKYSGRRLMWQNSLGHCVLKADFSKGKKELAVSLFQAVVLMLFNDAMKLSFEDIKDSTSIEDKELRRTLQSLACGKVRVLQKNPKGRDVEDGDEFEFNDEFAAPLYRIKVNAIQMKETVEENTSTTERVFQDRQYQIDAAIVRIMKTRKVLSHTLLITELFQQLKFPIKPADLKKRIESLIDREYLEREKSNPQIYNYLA
Description: co-IP; FLAG-CUL4 extract (1 mg, treated with 1 mM GSNO) captured on anti-FLAG M2 Matrix, beads washed, then incubated 2 h at 4 °C with 1 mg of ABI5 or ABI5C153S soluble proteins treated with 1 mM GSNO; lysis buffer 100 mM Tris-HCl pH 7.5, 150 mM NaCl, 0.1% Tween-20; detection with anti-MYC.

Assay [3] concerns the target KEG-HA (KEEP ON GOING E3 ligase) (Arabidopsis thaliana) (UniProt Q9FY48). Description: co-IP; KEG-HA extract (1 mg, treated with 1 mM GSNO) captured on anti-HA Affinity Matrix, beads washed, then incubated 2 h at 4 °C with 1 mg of ABI5 or ABI5C153S soluble proteins treated with 1 mM GSNO; lysis buffer 100 mM Tris-HCl pH 7.5, 150 mM NaCl, 0.1% Tween-20; detection with anti-MYC.

In assay [4] the target is ABI5C153S, yeast two-hybrid fusion (Arabidopsis thaliana) (UniProt Q9SJN0). The assay is described as follows: two-hybrid; ABI5 and ABI5C153S in pDEST22 (prey) and pDEST32 (bait); mating, diploids spotted on DOB-L-W-Histidine ± 3-AT, 28 °C; also in the presence of NO-related compounds.

B1: ABI5 (ABA … 5, basic leucine zipper transcription factor), yeast two-hybrid fusion (protein, UniProt Q9SJN0 1-442)
chain: MVTRETKLTSEREVESSMAQARHNGGGGGENHPFTSLGRQSSIYSLTLDEFQHALCENGKNFGSMNMDEFLVSIWNAEENNNNQQQAAAAAGSHSVPANHNGFNNNNNNGGEGGVGVFSGGSRGNEDANNKRGIANESSLPRQGSLTLPAPLCRKTVDEVWSEIHRGGGSGNGGDSNGRSSSSNGQNNAQNGGETAARQPTFGEMTLEDFLVKAGVVREHPTNPKPNPNPNQNQNPSSVIPAAAQQQLYGVFQGTGDPSFPGQAMGVGDPSGYAKRTGGGGYQQAPPVQAGVCYGGGVGFGAGGQQMGMVGPLSPVSSDGLGHGQVDNIGGQYGVDMGGLRGRKRVVDGPVEKVVERRQRRMIKNRESAARSRARKQAYTVELEAELNQLKEENAQLKHALAELERKRKQQYFESLKSRAQPKLPKSNGRLRTLMRNPSCPL
For the molecule B1, the binding result in assay [1] is given as “binds”.

B2: cMyc-ABI5C153S (transgenic, 35S:cMyc-ABI5C153S) (protein, UniProt Q9SJN0 1-442)
chain: MVTRETKLTSEREVESSMAQARHNGGGGGENHPFTSLGRQSSIYSLTLDEFQHALCENGKNFGSMNMDEFLVSIWNAEENNNNQQQAAAAAGSHSVPANHNGFNNNNNNGGEGGVGVFSGGSRGNEDANNKRGIANESSLPRQGSLTLPAPLSRKTVDEVWSEIHRGGGSGNGGDSNGRSSSSNGQNNAQNGGETAARQPTFGEMTLEDFLVKAGVVREHPTNPKPNPNPNQNQNPSSVIPAAAQQQLYGVFQGTGDPSFPGQAMGVGDPSGYAKRTGGGGYQQAPPVQAGVCYGGGVGFGAGGQQMGMVGPLSPVSSDGLGHGQVDNIGGQYGVDMGGLRGRKRVVDGPVEKVVERRQRRMIKNRESAARSRARKQAYTVELEAELNQLKEENAQLKHALAELERKRKQQYFESLKSRAQPKLPKSNGRLRTLMRNPSCPL
As to B2, the binding entry in assay [2] and in assay [3] was “no binding” throughout.

B3: ABI5C153S, yeast two-hybrid fusion (protein, UniProt Q9SJN0 1-442)
chain: MVTRETKLTSEREVESSMAQARHNGGGGGENHPFTSLGRQSSIYSLTLDEFQHALCENGKNFGSMNMDEFLVSIWNAEENNNNQQQAAAAAGSHSVPANHNGFNNNNNNGGEGGVGVFSGGSRGNEDANNKRGIANESSLPRQGSLTLPAPLSRKTVDEVWSEIHRGGGSGNGGDSNGRSSSSNGQNNAQNGGETAARQPTFGEMTLEDFLVKAGVVREHPTNPKPNPNPNQNQNPSSVIPAAAQQQLYGVFQGTGDPSFPGQAMGVGDPSGYAKRTGGGGYQQAPPVQAGVCYGGGVGFGAGGQQMGMVGPLSPVSSDGLGHGQVDNIGGQYGVDMGGLRGRKRVVDGPVEKVVERRQRRMIKNRESAARSRARKQAYTVELEAELNQLKEENAQLKHALAELERKRKQQYFESLKSRAQPKLPKSNGRLRTLMRNPSCPL
Regarding B3, the binding entry in assay [4] was “binds”.

B4: cMyc-ABI5 (transgenic, 35S:cMyc-ABI5) (protein, UniProt Q9SJN0 1-442)
chain: MVTRETKLTSEREVESSMAQARHNGGGGGENHPFTSLGRQSSIYSLTLDEFQHALCENGKNFGSMNMDEFLVSIWNAEENNNNQQQAAAAAGSHSVPANHNGFNNNNNNGGEGGVGVFSGGSRGNEDANNKRGIANESSLPRQGSLTLPAPLCRKTVDEVWSEIHRGGGSGNGGDSNGRSSSSNGQNNAQNGGETAARQPTFGEMTLEDFLVKAGVVREHPTNPKPNPNPNQNQNPSSVIPAAAQQQLYGVFQGTGDPSFPGQAMGVGDPSGYAKRTGGGGYQQAPPVQAGVCYGGGVGFGAGGQQMGMVGPLSPVSSDGLGHGQVDNIGGQYGVDMGGLRGRKRVVDGPVEKVVERRQRRMIKNRESAARSRARKQAYTVELEAELNQLKEENAQLKHALAELERKRKQQYFESLKSRAQPKLPKSNGRLRTLMRNPSCPL
B4: the binding result in assay [2] and in assay [3] was “binds” each time.
